For at least one entry, the source does not settle the construct or the ends of the probe. For some assays here: Where cells or extracts were used, other partners may take part. For some assays here: At least one verdict rests on a figure or table, not on a statement of the authors.
Key:
[1] = test system: YTHDF1 (Active Motif #31608); experiment: EMSA; conditions: YTHDF1 0.64 uM, RNA 250 nM, positive control; m6A at positions 3, 9, 15, 22, 29
GFP-FUS = GFP-FUS (UniProt P35637); experiment: confocal nanoscanning; conditions: cell lysate; protein in a lysate after overexpression

Amino acid sequences for entries named in this document (tags omitted). A change or cut given only in a name is not applied to a line headed by its entry.
UniProt P35637: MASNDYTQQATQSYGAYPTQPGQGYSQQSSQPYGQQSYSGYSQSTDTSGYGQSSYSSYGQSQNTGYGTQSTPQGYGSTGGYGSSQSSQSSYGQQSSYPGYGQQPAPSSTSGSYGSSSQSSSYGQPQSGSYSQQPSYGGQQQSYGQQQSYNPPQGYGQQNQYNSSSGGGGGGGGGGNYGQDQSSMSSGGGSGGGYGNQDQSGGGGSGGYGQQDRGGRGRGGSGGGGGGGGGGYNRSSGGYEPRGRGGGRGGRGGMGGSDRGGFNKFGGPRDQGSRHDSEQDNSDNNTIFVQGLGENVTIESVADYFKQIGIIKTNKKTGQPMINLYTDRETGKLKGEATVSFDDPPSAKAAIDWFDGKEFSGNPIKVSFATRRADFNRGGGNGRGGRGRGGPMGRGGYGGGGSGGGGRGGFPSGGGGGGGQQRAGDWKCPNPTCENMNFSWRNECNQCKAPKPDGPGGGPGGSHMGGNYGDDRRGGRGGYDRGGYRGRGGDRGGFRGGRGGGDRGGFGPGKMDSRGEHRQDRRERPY

## GGACUCGGACUUGGACUCUGGACUUUGGAC [4xDRACH-m6A]
[1]
  binding result: binds

## GGACUCGGACUUGGACUCUGGACUUUGGAC [4xDRACH]
GFP-FUS
  binding result: binds

— paper doi:10.1101/2025.02.01.633781
